Experimental data: PubChem BioAssay AID504786 (Drosophila RNAi Screening Center, 2011)

Purpose: 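Knock-downs reducing HIF reporter induction by the iron chelator DFO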 (primary screen)
System: Drosophila S2 cells with a stable HIF luciferase reporter
Reagent: long dsRNA against Drosophila genes, about 0.2 µg dsRNA per well of a 384-well plate
Time to read-out: three days of knock-down, then 20 h of DFO before reading
Challenge: desferrioxamine (DFO) at 100 µM, an iron chelator that mimics hypoxia, for 20 h
Detection: 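Firefly luciferase driven by the mouse ldh-a hypoxia-response element, measured after 20 h of 100 µM DFO; z-scores per plate, higher means more signal lost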
Scale: z-score: higher = stronger loss of HIF reporter signal
In all, the deposit lists about 21,000 reagents; this is an unselected part of those with a known target gene and a result. 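Primary screen; positive scores mean lost reporter signal, so the sign may be inverted from the usual convention.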 Names joined by + are all predicted targets of the reagent.

no.	gene	PubChem SID	z-score, replicate 1	z-score, replicate 2
1	CG2616	SID104195232	-0.4	-0.5
2	CG4853	SID104186690	-0.2	-0.2
3	Srrm1	SID104189627	-0.3	-0.5
4	ND-ACP	SID104188516	-0.1	-0.1
5	Rrp5	SID104195654	-0.2	0.2
6	rho-6	SID104182380	-0.4	-0.3
7	CG13008	SID104199319	-0.2	-0.3
8	CG13008	SID104199320	-0.4	-0.3
9	Or7a	SID104198483	-0.3	-0.5
10	zuc	SID104181952	-0.3	-0.3
11	Adck1	SID104184186	-0.4	-0.2
12	CG15580	SID104192058	-0.3	-0.2
13	CG14036	SID104182153	-0.3	-0.4
14	Srp19	SID104191080	-0.7	-1.2
15	CG13288	SID104189754	-0.2	0.1
16	GLS	SID104187053	-0.2	0.5
17	CG11122	SID104199174	-0.3	0.1
18	CG9436	SID104184797	-0.1	-0.1
19	Elp2	SID104185887	-0.1	-0.1
20	Nsun5	SID104195627	-0.2	0.2
21	CG14777	SID104198355	-0.3	-0.1
22	RabX5	SID104188400	-0.2	-0.4
23	CG3407	SID104180395	-0.2	-0.5
24	mxt	SID104180343	-0.2	-0.4
25	CG15717	SID104199476	-0.2	-0.3
26	Elp3	SID104180240	0	0
27	Tmtc1	SID104179939	-0.1	0.2
28	Tmtc1	SID104179943	0	0.3
29	Tmtc1	SID104180106	-0.2	-0.1
30	Tmtc1	SID104180203	-0.1	-0.3
31	Cp15	SID104190910	-0.4	-0.1
32	MED7	SID104195851	0.6	1.2
33	Tim17a2	SID104192044	-0.3	-0.5
34	RagC-D	SID104187031	0.6	0
35	CG14572	SID104191525	-0.3	-0.4
36	AspRS	SID104185706	0.1	-0.2
37	CG33704	SID104183630	0.3	-0.1

Part of the list above, set out differently:
{"gene":"CG13288","PubChem SID":"SID104189754","z-score, replicate 1":-0.2,"z-score, replicate 2":0.1}
{"gene":"GLS","PubChem SID":"SID104187053","z-score, replicate 1":-0.2,"z-score, replicate 2":0.5}
{"gene":"CG11122","PubChem SID":"SID104199174","z-score, replicate 1":-0.3,"z-score, replicate 2":0.1}
{"gene":"CG9436","PubChem SID":"SID104184797","z-score, replicate 1":-0.1,"z-score, replicate 2":-0.1}
{"gene":"Elp2","PubChem SID":"SID104185887","z-score, replicate 1":-0.1,"z-score, replicate 2":-0.1}
{"gene":"Nsun5","PubChem SID":"SID104195627","z-score, replicate 1":-0.2,"z-score, replicate 2":0.2}
{"gene":"CG14777","PubChem SID":"SID104198355","z-score, replicate 1":-0.3,"z-score, replicate 2":-0.1}

The results go on.
no.	gene	PubChem SID	z-score, replicate 1	z-score, replicate 2
38	cold	SID104180330	-0.3	-0.4
39	CG1138	SID104192322	-0.4	-0.2
40	Nep3	SID104200477	-0.1	0.1
41	sens	SID104189055	2.1	0.5
42	Tsp42Ea	SID104184774	-0.3	-0.2
43	Tsp42Ea	SID104186584	-0.2	-0.3
44	CG7945 + yellow-k	SID104190643	-0.1	-0.1
45	lqf	SID104191155	-0.5	-0.9
46	dsb	SID104188199	1.8	0.2
47	dsb	SID104188334	-0.2	-0.4
48	Osi24	SID104192067	-0.4	-0.5
49	CG5953	SID104181338	1.9	0.2
50	CG5953	SID104182706	-0.2	1.4
51	CG13589	SID104184017	0.1	-0.9
52	AgmNAT	SID104197864	-0.3	-0.4
53	CG8323	SID104186941	0.1	-0.1
54	CG31091	SID104195725	-0.3	-0.4
55	PK2-R2	SID104196240	-0.3	-0.4
56	ncd	SID104196804	-0.3	-0.2
